Results reported in patent US20200230207A1, “TREATMENT OF BONE GROWTH DISORDERS” (FONDAZIONE TELETHON, priority 2015, published 2020).
No constants are given. Whether binding was seen depends on the method and setting. In cells and extracts the contact can be indirect. Some results given as binding are weak or reduced against the parent protein; the word gives no strength.

Biological target: T1, Rubicon (endogenous, RCS chondrocytes) (rat (endogenous in RCS rat chondrosarcoma chondrocytes))
T1 sequence: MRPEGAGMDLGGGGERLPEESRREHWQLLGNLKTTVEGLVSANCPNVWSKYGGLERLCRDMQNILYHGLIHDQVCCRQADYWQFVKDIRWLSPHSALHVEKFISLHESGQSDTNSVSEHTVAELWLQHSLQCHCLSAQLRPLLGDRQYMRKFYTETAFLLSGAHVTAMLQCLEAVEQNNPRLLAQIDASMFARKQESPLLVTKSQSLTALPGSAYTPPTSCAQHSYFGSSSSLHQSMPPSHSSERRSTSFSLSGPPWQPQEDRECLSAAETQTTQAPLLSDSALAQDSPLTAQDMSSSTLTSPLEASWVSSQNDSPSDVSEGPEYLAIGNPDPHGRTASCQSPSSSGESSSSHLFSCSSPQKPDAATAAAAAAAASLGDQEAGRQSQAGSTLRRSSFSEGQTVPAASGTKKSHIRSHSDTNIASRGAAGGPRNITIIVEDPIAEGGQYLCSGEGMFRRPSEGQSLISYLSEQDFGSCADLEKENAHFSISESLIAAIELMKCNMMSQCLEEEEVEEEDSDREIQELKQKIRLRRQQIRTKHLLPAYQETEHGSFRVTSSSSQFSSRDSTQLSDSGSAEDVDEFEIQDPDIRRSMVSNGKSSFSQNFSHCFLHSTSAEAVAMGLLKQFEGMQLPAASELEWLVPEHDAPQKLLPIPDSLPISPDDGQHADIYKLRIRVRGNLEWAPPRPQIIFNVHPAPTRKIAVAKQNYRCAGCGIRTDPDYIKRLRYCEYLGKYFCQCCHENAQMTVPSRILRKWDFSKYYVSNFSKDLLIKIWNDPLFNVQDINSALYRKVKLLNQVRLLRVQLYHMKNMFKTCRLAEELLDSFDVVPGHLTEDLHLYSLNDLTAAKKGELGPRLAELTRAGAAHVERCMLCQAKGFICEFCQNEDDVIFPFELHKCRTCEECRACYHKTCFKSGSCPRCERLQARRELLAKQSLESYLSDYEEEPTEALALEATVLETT
Test: co-immunoprecipitation from RCS WT and GusbKO chondrocyte lysates with a UVRAG-specific antibody, western blot for Rubicon

binding: binds
B1: UVRAG (UV radiation resistance-associated gene protein; endogenous, RCS chondrocytes) (protein)
chain: MSSCASLGGPVPLPPPGPSAALTPGAPTRALHVELPSQQRRLRHLRNIAARNIVNRNGHQLLDTYFTLHLCDNEKICKEFYRSEVIKNSLNPTWRSLDFGIMPDRLDTSVSCFVVKIWGGKEEAYQLLIEWKVYLDGLKYLGQQIHARNQNEIIFGLNDGYYGAPFEHKAHPNAQKNLLQVDQNCVRNSYDVFSLLRLHRAQCAIKQTQVTVQRIGKEIEEKLRLTSTSNELKKESECLRLKILVLRNELERQKKALGREVAFLHKQQMALQDKGSAFAAEHAKLQLQKESLRELRKECTAKRELFLKTNAQLTIRCRQLLSELSYIYPIDLNEHKDYFVCGVKLPNSEDFQAKDDGSIAVALGYTAHLVSMISFFLQVPLRYPIIHKGSRSTIKDNINDKLTEKEREFPLYPKGGEKLQFDYGVYLLNKNIAQLRYQHGLGTPDLRQTLPNLKNFMEHGLMVRCDRHHISSAIPVPKRQSSTFRGADVGLSTGVPSPDNVHRKRASSENERLQYKTPPPSYNSALTQHGVAMPTLGDSERKVTPLSSSLDTSLDFSKESKKTGVDLGNSVSGDHRNVDSSQEQGEALPGHLATINGTALPSEQPGPAGTLLPGLCHPAPSAELCCAVEQAEEIIGLEATGFTSGDQLEALSCIPVDSAVAVECDEQVLGEFEEFSRRIYALSENVSSFRRPRRSSDK
